Results from US20150369821A1 (Pieris, published 2015).
These are yes or no findings as the source states them, for the method shown. Some binding calls cover weakened binding; strength is not graded here.

Tests used:
[1] = target: hepcidin-specific lipocalin mutein of SEQ ID NO: 10; assay: ECLA competition, mutein coated on MSD plate, competitor Sulfo-Tag labeled control hepcidin
[2] = target: hepcidin-specific lipocalin mutein of SEQ ID NO: 10; assay: enzyme-linked fluorescence competition assay, mutein coated on plate, competitor hepcidin-C-Bio
[3] = target: hepcidin-specific lipocalin mutein of SEQ ID NO: 10; assay: enzyme-linked fluorescence competition assay, FIG. 2 legend
[4] = target: hepcidin-specific lipocalin mutein of SEQ ID NO: 10; assay: enzyme-linked fluorescence competition assay, mutein coated on plate, competitor hepcidin-C-Bio (0.6 nM), Extravidin-HRP detection
[5] = target: hepcidin-specific lipocalin mutein of SEQ ID NO: 8; assay: ECLA competition, 0.5 nM mutein in solution, hepcidin-C-Bio on Neutravidin plate, anti-NGAL IgG / anti-rabbit IgG Sulfo-Tag detection
[6] = target: hepcidin-specific lipocalin mutein of SEQ ID NO: 10; assay: ECLA competition, FIG. 1 legend
[7] = target: hepcidin-specific lipocalin mutein of SEQ ID NO: 10; assay: enzyme-linked absorption (450 nm) competition assay, mutein coated on plate, competitor hepcidin-C-Bio (0.3 nM), Extravidin-HRP detection
[8] = target: hepcidin-specific lipocalin mutein of SEQ ID NO: 10; assay: ECLA competition, mutein coated on MSD plate, competitor Sulfo-Tag labeled control hepcidin (0.6 nM)
[9] = target: hepcidin-specific lipocalin mutein of SEQ ID NO: 10; assay: enzyme-linked absorption competition assay, FIG. 3 legend
[10] = target: hepcidin-specific lipocalin mutein of SEQ ID NO: 8; assay: ECLA competition, mutein coated on MSD plate, competitor hepcidin-C-Bio (0.5 nM), Streptavidin-Sulfo-Tag detection

binding [1] | binding [2] | binding [3] | binding [4] | binding [5] | binding [6] | binding [7] | binding [8] | binding [9] | binding [10] | Binder
binds | binds |  |  |  |  |  |  |  |  | DTHFPICIFCCGCCHRSKCGMCCKT (peptide, UniProt P81172 60-84, looked up) [non-control hepcidins in human serum samples]
 |  | binds | binds | binds | binds | binds | binds | binds | binds | DTHFPICIFCCGCCHRSKCGMCCKT (peptide, UniProt P81172 60-84, looked up) [non-control hepcidin (unlabeled, unconjugated; PeptaNova, Cat. No: 4392-s)]
 |  | binds |  |  |  |  |  | binds |  | DTHFPICIFCCGCCHRSKCGMCCKT (peptide, UniProt P81172 60-84, looked up, C-terminal biotin) [C-terminal biotinylated control hepcidin (hepcidin-C-Bio, Bachem AG, custom synthesized)]
